Source: paper PMC6377664

Protein sequences, listed by entry. Tags and fused reporters are not part of them. Residues count along the entry.
UniProt P49789: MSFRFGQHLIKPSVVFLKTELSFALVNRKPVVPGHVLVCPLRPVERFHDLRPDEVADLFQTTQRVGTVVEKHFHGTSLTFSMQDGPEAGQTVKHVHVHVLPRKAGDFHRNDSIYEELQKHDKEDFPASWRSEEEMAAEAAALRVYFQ
UniProt P61604: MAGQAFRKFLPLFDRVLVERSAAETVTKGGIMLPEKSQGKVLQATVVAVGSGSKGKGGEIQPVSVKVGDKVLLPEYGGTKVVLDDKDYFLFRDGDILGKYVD
UniProt P10809, residues 27-573: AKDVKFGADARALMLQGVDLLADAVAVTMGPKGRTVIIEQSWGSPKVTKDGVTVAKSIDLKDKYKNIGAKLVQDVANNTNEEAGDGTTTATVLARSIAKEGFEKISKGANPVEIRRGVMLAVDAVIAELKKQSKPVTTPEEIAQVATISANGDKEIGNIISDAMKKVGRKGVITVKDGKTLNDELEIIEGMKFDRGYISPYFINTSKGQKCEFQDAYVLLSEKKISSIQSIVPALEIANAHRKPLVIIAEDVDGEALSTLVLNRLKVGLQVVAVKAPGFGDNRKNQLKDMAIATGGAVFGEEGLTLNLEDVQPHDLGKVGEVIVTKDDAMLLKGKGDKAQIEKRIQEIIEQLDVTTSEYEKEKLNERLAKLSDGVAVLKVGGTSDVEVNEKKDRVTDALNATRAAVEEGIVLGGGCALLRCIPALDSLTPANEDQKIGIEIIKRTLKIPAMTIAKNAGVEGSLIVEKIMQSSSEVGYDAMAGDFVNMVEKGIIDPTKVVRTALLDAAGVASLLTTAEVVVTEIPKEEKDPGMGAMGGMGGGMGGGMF
UniProt P05091, residues 18-517: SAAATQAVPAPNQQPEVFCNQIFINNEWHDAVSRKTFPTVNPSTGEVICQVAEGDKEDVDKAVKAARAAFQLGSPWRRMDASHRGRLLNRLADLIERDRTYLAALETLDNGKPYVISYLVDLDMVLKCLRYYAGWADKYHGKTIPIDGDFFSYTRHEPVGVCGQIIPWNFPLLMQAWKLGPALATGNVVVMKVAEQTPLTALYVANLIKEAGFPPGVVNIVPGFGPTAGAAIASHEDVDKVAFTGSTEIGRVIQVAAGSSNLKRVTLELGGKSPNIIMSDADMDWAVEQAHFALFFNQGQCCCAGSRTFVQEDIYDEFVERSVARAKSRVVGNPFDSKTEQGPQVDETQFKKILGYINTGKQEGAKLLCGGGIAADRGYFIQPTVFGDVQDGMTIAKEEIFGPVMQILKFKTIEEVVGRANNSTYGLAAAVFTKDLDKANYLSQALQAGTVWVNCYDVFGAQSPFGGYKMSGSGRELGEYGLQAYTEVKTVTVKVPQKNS

B1: Ferredoxin reductase (Fdxr), endogenous in A549 (protein, UniProt P22570 33-491)
chain: STQEKTPQICVVGSGPAGFYTAQHLLKHPQAHVDIYEKQPVPFGLVRFGVAPDHPEVKNVINTFTQTAHSGRCAFWGNVEVGRDVTVPELREAYHAVVLSYGAEDHRALEIPGEELPGVCSARAFVGWYNGLPENQELEPDLSCDTAVILGQGNVALDVARILLTPPEHLERTDITKAALGVLRQSRVKTVWLVGRRGPLQVAFTIKELREMIQLPGARPILDPVDFLGLQDKIKEVPRPRKRLTELLLRTATEKPGPAEAARQASASRAWGLRFFRSPQQVLPSPDGRRAAGVRLAVTRLEGVDEATRAVPTGDMEDLPCGLVLSSIGYKSRPVDPSVPFDSKLGVIPNVEGRVMDVPGLYCSGWVKRGPTGVIATTMTDSFLTGQMLLQDLKAGLLPSGPRPGYAAIQALLSSRGVRPVSFSDWEKLDAEEVARGQGTGKPREKLVDPQEMLRLLGH
B2: Malate dehydrogenase (Mdh), endogenous in A549 (protein, UniProt P40926-1 25-338)
chain: AKVAVLGASGGIGQPLSLLLKNSPLVSRLTLYDIAHTPGVAADLSHIETKAAVKGYLGPEQLPDCLKGCDVVVIPAGVPRKPGMTRDDLFNTNATIVATLTAACAQHCPEAMICVIANPVNSTIPITAEVFKKHGVYNPNKIFGVTTLDIVRANTFVAELKGLDPARVNVPVIGGHAGKTIIPLISQCTPKVDFPQDQLTALTGRIQEAGTEVVKAKAGAGSATLSMAYAGARFVFSLVDAMNGKEGVVECSFVKSQETECTYFSTPLLLGKKGIEKNLGIGKVSSFEEKMISDAIPELKASIKKGEDFVKTLK
B3: Electron-transfer flavoprotein (Etfb), endogenous in A549 (protein, UniProt P38117-1 1-255)
chain: MAELRVLVAVKRVIDYAVKIRVKPDRTGVVTDGVKHSMNPFCEIAVEEAVRLKEKKLVKEVIAVSCGPAQCQETIRTALAMGADRGIHVEVPPAEAERLGPLQVARVLAKLAEKEKVDLVLLGKQAIDDDCNQTGQMTAGFLDWPQGTFASQVTLEGDKLKVEREIDGGLETLRLKLPAVVTADLRLNEPRYATLPNIMKAKKKKIEVIKPGDLGVDLTSKLSVISVEDPPQRTAGVKVETTEDLVAKLKEIGRI

Target: Fhit-His6 (His-tagged Fhit from adenovirus AdFHIT-His6) (human) (UniProt P49789)
Experiment: affinity purification with mass spectrometry; A549 cells infected with AdFHIT-His6 (control: AdFHIT), cross-linked in vivo with DSP, lysed, proteins isolated with nickel (Ni-NTA) beads, DSP cleaved with DTT, trypsin digest, LC-MS/MS; proteins found only in the AdFHIT-His6 sample kept

Row | Molecule | binding
1 | HSP10 (10-kDa heat-shock protein), endogenous in A549 (from UniProt P61604 1-102) | binds
2 | HSP60 (60-kDa heat-shock protein), endogenous in A549 (from UniProt P10809-1 27-573) | binds
3 | Mitochondrial aldehyde dehydrogenase 2 (Aldh2), endogenous in A549 (from UniProt P05091-1 18-517) | binds
4 | B1 | binds
5 | B2 | binds
6 | B3 | binds

Results are given in words; binding and its absence hold for the method and conditions named. Binding seen in cells or lysates may run through a third protein. A yes stands for co-enrichment or nearness to the bait. Other partners may have been found.
